The reference is the same well before dosing, and untreated signal decays as well.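 Labels refer to human fibroblasts, largely primary: uterine (C12385, HUF), lung (H6013), bone (Hs27A), adrenal (HADF), skin (WS1), plus mammary HMF and breast cancer-associated Hs343T. Cancer lines are basal-like or mesenchymal-like triple-negative breast cancer. The paper counts as hits responses shifting over 3x the replicate standard deviation. The tissue of the other fibroblasts is not given here.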
System: BT20
Test: relative JC-1 red fluorescence (viability) vs pre-drug, coculture with fibroblast (fraction); higher = more viable cancer cells
Settings: 0.1 µM
Protocol: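 JC-1 labelled TNBC cells cocultured 1:1 (1,500 cells each) with CellTrace Violet stained primary or stromal fibroblasts in 384-well plates in FluoroBrite medium, treated with one of 42 anticancer drugs at 0.1, 1, 10 or 100 uM. JC-1 red fluorescence (mitochondrial integrity in cancer cells only) was read by plate reader every 8 h for 72 h. Values are normalised to each well's pre-drug value. The stock of one drug was tenfold lower, so its dose labels may be too high.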

O=C(CCCCCCC(=O)Nc1ccccc1)NO [Vorinostat]
relative JC-1 red fluorescence
Settings | 8 h | 16 h | 24 h | 32 h | 40 h | 48 h | 56 h | 64 h | 72 h
coculture fibroblast: C12385 | 0.913 | 0.808 | 0.739 | 0.6587 | 0.5929 | 0.5536 | 0.5242 | 0.5054 | 0.4853
coculture fibroblast: H6013 | 0.9 | 0.885 | 0.876 | 0.844 | 0.822 | 0.813 | 0.832 | 0.819 | 0.806
coculture fibroblast: H6019 | 0.8479 | 0.774 | 0.739 | 0.691 | 0.649 | 0.627 | 0.599 | 0.573 | 0.556
coculture fibroblast: H6076 | 0.814 | 0.891 | 0.771 | 0.716 | 0.6702 | 0.633 | 0.609 | 0.598 | 0.579
coculture fibroblast: H6231 | 0.821 | 0.915 | 0.77 | 0.698 | 0.647 | 0.597 | 0.551 | 0.524 | 0.497
coculture fibroblast: HADF | 0.99035 | 0.874 | 0.815 | 0.782 | 0.749 | 0.705 | 0.7 | 0.691 | 0.678
coculture fibroblast: HCFa | 0.888 | 0.818 | 0.7579 | 0.6861 | 0.628 | 0.59 | 0.564 | 0.535 | 0.496
coculture fibroblast: HCPF | 0.912 | 0.913 | 0.827 | 0.772 | 0.703 | 0.6442 | 0.597 | 0.583 | 0.539
coculture fibroblast: HHSteC | 0.937 | 0.9022 | 0.868 | 0.791 | 0.738 | 0.69 | 0.651 | 0.624 | 0.593
coculture fibroblast: HMF | 0.819 | 0.844 | 0.741 | 0.679 | – | 0.58 | 0.5406 | 0.51503 | 0.49342
coculture fibroblast: HPFa | 0.949 | 0.847 | 0.819 | 0.73 | 0.687 | 0.638 | 0.604 | 0.569 | 0.519
coculture fibroblast: HUF | 0.935 | 0.8225 | 0.781 | 0.699 | 0.634 | 0.583 | 0.557 | 0.541 | 0.526
coculture fibroblast: Hs5 | 0.881 | 0.901 | 0.794 | 0.739 | 0.6845 | 0.6373 | 0.601 | 0.563 | 0.535
coculture fibroblast: Hs27A | 0.73 | 0.86 | 0.829 | 0.821 | 0.877 | 0.84 | 0.814 | 0.79 | 0.731
coculture fibroblast: Hs343T | 0.75 | 0.9112 | 0.783 | 0.718 | 0.651 | 0.593 | 0.541 | 0.519 | 0.486
coculture fibroblast: WS1 | 0.8327 | 0.7439 | 0.681 | 0.604 | 0.538 | 0.504 | 0.476 | 0.443 | 0.431

Source: the supplement of paper PMC6078165
